Drawing on patent publication US8815900B2, “Compounds and compositions for reducing lipid levels” (CVI Pharmaceuticals Limited, priority 2007, dated 2014), this text covers food intake for one compound.

The subject of the series is Wister male rats under a high fat and high cholesterol diet. The series is described as follows: Lipid lowering and body weight effects of (14R,13S)-CRDL hydrochloride salt in Wister rats. It is filed as in vivo. The settings on record: vs control group. The procedure:
Male Wister rats were used as another animal model to examine the in vivo effects of (14R,13S)-CRDL in plasma lipid levels.
In one experiment, 18 Wister male rats under a high fat and high cholesterol diet were divided into 2 groups. One group was given (14R,13S)-CRDL hydrochloride salt orally at a daily dose of 75 mg/kg by an orogastric tube for 4 weeks, and the control group received daily treatment of equal amount of vehicle (0.1 M sodium phosphate, pH 3.5). Serum lipid levels were measured weekly.
At the end of treatment, Rats were sacrificed and blood and sera were collected to measure several critical parameters for liver function and kidney function. […] Kidney function and blood glucose level were not changed by the treatment (FIG. 11E).
The food intake and body weight gains were measured every week during the 4-week treatment period. […] In the first week, the amount of food consumed was decreased in CRDL-treated group. […] The ability of CRDL to activate AMPK signaling pathway to increase energy expenditure and to reduce fat accumulation likely contributes to this weight reducing effect.

As to `COc1cc2c(cc1OC)[C@H]1[C@@H](C)c3ccc(OC)c(OC)c3CN1CC2` [CRDL, 14R,13S-(+)-corydaline], the food intake entry (first week of treatment) is reported as “decreased” and the food intake entry (second week through the rest of treatment) was “maintained at the level similar to the control group”.
